Where two headings read alike, the source gives them in different places. No constants are given. Whether binding was seen depends on the method and setting. For some of these results: Binding seen in cells or lysates may run through a third protein. Some binding calls cover weakened binding; strength is not graded here. For some of these results: Tags and fused reporters may be left off the sequences shown.
What was measured:
[1] = target: HSP90-K754R mutant, pcDNA3.1-Flag plasmid (UniProt P07900); assay: co-IP; HSP90-WT or HSP90-K754R with client proteins and cochaperones (Fig. 2f, g); cell lysates, primary antibody overnight at 4 °C, protein A/G Sepharose beads, western blot
[2] = target: wild-type HSP90 (HSP90-WT), pcDNA3.1-Flag plasmid (UniProt P07900); assay: as above
[3] = target: HSP90 (construct not stated) (UniProt P07900); assay: co-IP; immunoprecipitation to detect associations between HSP90 and a panel of HDAC 1–11, SIRT 1–7 and a series of HATs (Supplementary Fig. S3a, S3d); constructs not stated
[4] = target: Flag-tagged SDCBP (wild type) (UniProt O00560); assay: co-IP; ESCC cells cotransfected with Flag-tagged SDCBP (wild type or truncation mutants) and Myc-tagged HSP90 (wild type or mutants)
[5] = target: exogenous HSP90 (HSP90 overexpression) (UniProt P07900); assay: co-IP; exogenous HSP90 and SDCBP (Supplementary Fig. S4d); constructs not stated
[6] = target: HSP90 (construct not stated) (UniProt P07900); assay: co-IP; HSP90, SDCBP and HDAC11 together; HDAC11-bound and SDCBP-bound HSP90 compared in the presence of SDCBP (Fig. 4k)
[7] = target: SDCBP (construct not stated) (UniProt O00560); assay: co-IP; exogenous HSP90 and SDCBP (Supplementary Fig. S4d); constructs not stated
[8] = target: syndecan binding protein (SDCBP), endogenous (human (endogenous in ESCC cells)) (UniProt O00560); assay: co-IP; endogenous proteins in ESCC cell lysates, primary antibody overnight at 4 °C, protein A/G Sepharose beads, western blot; SDCBP-HSP90 and HDAC11-HSP90 also after treatment of the cells with V020-9974 (Fig. 6h, i)
[9] = target: heat shock protein 90 (HSP90 AA1), endogenous (human (endogenous in ESCC cells)) (UniProt P07900); assay: as above
[10] = target: Myc-tagged HSP90 (wild type) (UniProt P07900); assay: co-IP; binding of HDAC11 to wild-type or mutant HSP90 (Fig. 4j)
[11] = target: heat shock protein 90 (HSP90 AA1), endogenous (human (endogenous in ESCC cells)) (UniProt P07900); assay: co-IP; endogenous proteins in ESCC cell lysates, primary antibody overnight at 4 °C, protein A/G Sepharose beads, western blot; SDCBP-HSP90 and HDAC11-HSP90 also after treatment of the cells with V020-9974 (Fig. 6h, i); remark: listed apart in the source
[12] = target: HSP90-GST recombinant protein (UniProt P07900); assay: pull-down; GST or HSP90-GST immobilised on Glutathione-Sepharose beads (2 h, 4 °C), His-tagged proteins added, overnight at 4 °C, western blot; both purified

Protein sequences, listed by entry. Tags and fused reporters are not part of them.
UniProt O00560: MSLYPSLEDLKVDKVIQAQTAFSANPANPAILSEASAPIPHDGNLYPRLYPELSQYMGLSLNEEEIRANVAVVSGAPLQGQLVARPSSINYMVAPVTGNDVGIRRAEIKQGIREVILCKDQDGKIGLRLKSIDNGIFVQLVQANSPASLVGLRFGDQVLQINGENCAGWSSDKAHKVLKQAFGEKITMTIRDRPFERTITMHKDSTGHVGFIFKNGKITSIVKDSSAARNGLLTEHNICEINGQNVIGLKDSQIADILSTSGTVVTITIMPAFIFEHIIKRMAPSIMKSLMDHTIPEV
UniProt P10275: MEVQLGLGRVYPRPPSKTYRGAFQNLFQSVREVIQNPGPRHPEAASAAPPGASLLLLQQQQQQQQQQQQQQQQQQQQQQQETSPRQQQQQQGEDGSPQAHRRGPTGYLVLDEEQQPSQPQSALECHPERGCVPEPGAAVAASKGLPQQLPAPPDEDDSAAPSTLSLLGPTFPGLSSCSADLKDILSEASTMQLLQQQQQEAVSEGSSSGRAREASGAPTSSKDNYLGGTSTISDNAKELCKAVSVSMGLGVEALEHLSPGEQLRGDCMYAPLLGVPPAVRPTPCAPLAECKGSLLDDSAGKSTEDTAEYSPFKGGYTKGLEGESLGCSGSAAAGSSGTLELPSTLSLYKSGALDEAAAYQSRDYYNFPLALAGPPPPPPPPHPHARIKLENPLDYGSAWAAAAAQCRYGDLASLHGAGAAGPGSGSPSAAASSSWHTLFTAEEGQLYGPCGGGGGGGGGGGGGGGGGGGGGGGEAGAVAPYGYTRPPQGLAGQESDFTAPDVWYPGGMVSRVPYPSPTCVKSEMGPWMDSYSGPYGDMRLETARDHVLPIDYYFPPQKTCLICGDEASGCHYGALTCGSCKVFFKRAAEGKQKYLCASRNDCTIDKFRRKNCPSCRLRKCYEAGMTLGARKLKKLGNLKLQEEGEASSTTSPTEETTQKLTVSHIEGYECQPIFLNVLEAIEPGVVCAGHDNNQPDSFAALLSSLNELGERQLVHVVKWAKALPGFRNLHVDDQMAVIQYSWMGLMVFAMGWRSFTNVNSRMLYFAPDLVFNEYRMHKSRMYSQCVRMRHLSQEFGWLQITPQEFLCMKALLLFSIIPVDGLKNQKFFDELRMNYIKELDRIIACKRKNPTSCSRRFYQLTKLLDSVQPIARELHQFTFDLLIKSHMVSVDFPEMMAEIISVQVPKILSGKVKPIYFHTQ
UniProt O15379: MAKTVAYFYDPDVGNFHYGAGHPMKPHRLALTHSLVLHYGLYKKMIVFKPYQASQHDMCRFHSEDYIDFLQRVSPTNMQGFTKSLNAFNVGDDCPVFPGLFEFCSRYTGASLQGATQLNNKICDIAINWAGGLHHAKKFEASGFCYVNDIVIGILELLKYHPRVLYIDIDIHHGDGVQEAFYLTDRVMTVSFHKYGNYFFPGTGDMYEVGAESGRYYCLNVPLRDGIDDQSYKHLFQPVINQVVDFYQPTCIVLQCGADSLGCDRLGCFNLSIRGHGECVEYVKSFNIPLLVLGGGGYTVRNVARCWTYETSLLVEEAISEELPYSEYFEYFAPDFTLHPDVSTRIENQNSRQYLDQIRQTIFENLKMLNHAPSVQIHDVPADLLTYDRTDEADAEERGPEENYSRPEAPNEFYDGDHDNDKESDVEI

Question: Which results are given for “Androgen Receptor (from UniProt P10275 1-920)”?
Answer: binding [1]: binds; binding [2]: binds

Question: How did the binding [3] turn out when “HDAC1 (from UniProt Q13547 1-482) (enzyme)” was run?
Answer: binds

Question: Which binding [3] does the source give for “HDAC3 (from UniProt O15379 1-428) (enzyme)” here?
Answer: binds

Question: Which binding [4] does the source give for “Myc-tagged HSP90 (wild type) (from UniProt P07900-2 1-854)” here?
Answer: binds

Question: With “SDCBP (construct not stated) (from UniProt O00560 1-298)” as the molecule, how does the binding [5] read?
Answer: binds

Question: And the binding [6]?
Answer: binds

Question: For “exogenous HSP90 (HSP90 overexpression) (from UniProt P07900-2 1-854)”, which binding [7] is on record?
Answer: binds

Question: Which binding [8] does the source give for “heat shock protein 90 (HSP90 AA1), endogenous (from UniProt P07900-2 1-854)” here?
Answer: binds

Question: With “syndecan binding protein (SDCBP), endogenous (from UniProt O00560 1-298)” as the molecule, how does the binding [9] read?
Answer: binds

B1: HDAC11 (construct not stated) (enzyme, UniProt Q96DB2 1-347)
chain: MLHTTQLYQHVPETRWPIVYSPRYNITFMGLEKLHPFDAGKWGKVINFLKEEKLLSDSMLVEAREASEEDLLVVHTRRYLNELKWSFAVATITEIPPVIFLPNFLVQRKVLRPLRTQTGGTIMAGKLAVERGWAINVGGGFHHCSSDRGGGFCAYADITLAIKFLFERVEGISRATIIDLDAHQGNGHERDFMDDKRVYIMDVYNRHIYPGDRFAKQAIRRKVELEWGTEDDEYLDKVERNIKKSLQEHLPDVVVYNAGTDILEGDRLGGLSISPAGIVKRDELVFRMVRGRRVPILMVTSGGYQKRTARIIADSILNLFGLGLIGPESPSVSAQNSDTPLLPPAVP
Question: How did the binding [10] turn out when B1 was run?
Answer: binds

Question: And the binding [6]?
Answer: binds

Question: And the binding [3]?
Answer: binds

B2: SIRT4 (enzyme, UniProt Q9Y6E7 29-314)
chain: IGLFVPASPPLDPEKVKELQRFITLSKRLLVMTGAGISTESGIPDYRSEKVGLYARTDRRPIQHGDFVRSAPIRQRYWARNFVGWPQFSSHQPNPAHWALSTWEKLGKLYWLVTQNVDALHTKAGSRRLTELHGCMDRVLCLDCGEQTPRGVLQERFQVLNPTWSAEAHGLAPDGDVFLSEEQVRSFQVPTCVQCGGHLKPDVVFFGDTVNPDKVDFVHKRVKEADSLLVVGSSLQVYSGYRFILTAWEKKLPIAILNIGPTRSDDLACLKLNSRCGELLPLIDPC
Question: Which binding [3] does the source give for B2 here?
Answer: binds

B3: histone deacetylase 11 (HDAC11), endogenous (enzyme, UniProt Q96DB2 1-347)
chain: MLHTTQLYQHVPETRWPIVYSPRYNITFMGLEKLHPFDAGKWGKVINFLKEEKLLSDSMLVEAREASEEDLLVVHTRRYLNELKWSFAVATITEIPPVIFLPNFLVQRKVLRPLRTQTGGTIMAGKLAVERGWAINVGGGFHHCSSDRGGGFCAYADITLAIKFLFERVEGISRATIIDLDAHQGNGHERDFMDDKRVYIMDVYNRHIYPGDRFAKQAIRRKVELEWGTEDDEYLDKVERNIKKSLQEHLPDVVVYNAGTDILEGDRLGGLSISPAGIVKRDELVFRMVRGRRVPILMVTSGGYQKRTARIIADSILNLFGLGLIGPESPSVSAQNSDTPLLPPAVP
Question: For B3, which binding [11] is on record?
Answer: binds

B4: HDAC11-His recombinant protein (enzyme, UniProt Q96DB2 1-347)
chain: MLHTTQLYQHVPETRWPIVYSPRYNITFMGLEKLHPFDAGKWGKVINFLKEEKLLSDSMLVEAREASEEDLLVVHTRRYLNELKWSFAVATITEIPPVIFLPNFLVQRKVLRPLRTQTGGTIMAGKLAVERGWAINVGGGFHHCSSDRGGGFCAYADITLAIKFLFERVEGISRATIIDLDAHQGNGHERDFMDDKRVYIMDVYNRHIYPGDRFAKQAIRRKVELEWGTEDDEYLDKVERNIKKSLQEHLPDVVVYNAGTDILEGDRLGGLSISPAGIVKRDELVFRMVRGRRVPILMVTSGGYQKRTARIIADSILNLFGLGLIGPESPSVSAQNSDTPLLPPAVP
Question: With B4 as the molecule, how does the binding [12] read?
Answer: binds
